Assay results reported in the supplement of paper PMC12823440, “Inhibitors supercharge kinase turnover through native proteolytic circuits” (Nature, 2025).
Where a name gives a salt, the structure may show the parent alone. Some of the results follow. Hit calls seldom repeat between salt and free forms of one compound.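 Kinases were expressed as nanoluciferase fusions in K562 cells and luminescence was read every 4 h between 2 and 18 h as percent of control, DMSO set to 100% and a positive control to 0%. A time point counts as decreased when the signal drops significantly (2 sigma). The hit call is the authors' own, does not follow from the count of time points alone, and its rule is not shown.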

Chains of the proteins cited; added tags and fusions are not shown. Lines headed by an entry give the natural chain unless they say otherwise; changes in a name come on top.
UniProt Q9UQM7, whole entry: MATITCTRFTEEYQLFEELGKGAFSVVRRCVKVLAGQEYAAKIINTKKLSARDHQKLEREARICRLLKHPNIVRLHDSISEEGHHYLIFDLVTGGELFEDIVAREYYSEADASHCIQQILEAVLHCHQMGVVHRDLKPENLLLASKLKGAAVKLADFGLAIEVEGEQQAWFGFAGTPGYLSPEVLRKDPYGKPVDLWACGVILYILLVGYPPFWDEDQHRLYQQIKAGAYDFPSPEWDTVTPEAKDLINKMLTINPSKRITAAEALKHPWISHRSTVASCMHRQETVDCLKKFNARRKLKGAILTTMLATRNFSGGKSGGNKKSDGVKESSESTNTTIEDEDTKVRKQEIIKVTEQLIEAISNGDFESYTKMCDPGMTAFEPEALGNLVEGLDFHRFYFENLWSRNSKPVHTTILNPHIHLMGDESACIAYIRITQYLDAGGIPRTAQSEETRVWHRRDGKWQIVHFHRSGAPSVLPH
UniProt Q13555: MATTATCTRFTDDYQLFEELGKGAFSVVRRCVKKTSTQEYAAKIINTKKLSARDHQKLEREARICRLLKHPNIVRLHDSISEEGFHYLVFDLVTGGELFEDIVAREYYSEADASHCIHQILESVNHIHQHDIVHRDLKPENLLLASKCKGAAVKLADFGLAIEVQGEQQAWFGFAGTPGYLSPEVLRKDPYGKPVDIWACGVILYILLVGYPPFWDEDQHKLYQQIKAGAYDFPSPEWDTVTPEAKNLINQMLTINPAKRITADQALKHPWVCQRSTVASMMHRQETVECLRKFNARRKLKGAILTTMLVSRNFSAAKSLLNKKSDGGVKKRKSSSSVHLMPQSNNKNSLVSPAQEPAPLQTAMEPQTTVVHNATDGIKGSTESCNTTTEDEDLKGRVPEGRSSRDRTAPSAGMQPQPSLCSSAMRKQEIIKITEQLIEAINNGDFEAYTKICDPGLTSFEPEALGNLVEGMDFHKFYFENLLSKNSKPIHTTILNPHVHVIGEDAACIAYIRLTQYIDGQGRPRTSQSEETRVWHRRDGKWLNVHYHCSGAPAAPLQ
UniProt Q15131: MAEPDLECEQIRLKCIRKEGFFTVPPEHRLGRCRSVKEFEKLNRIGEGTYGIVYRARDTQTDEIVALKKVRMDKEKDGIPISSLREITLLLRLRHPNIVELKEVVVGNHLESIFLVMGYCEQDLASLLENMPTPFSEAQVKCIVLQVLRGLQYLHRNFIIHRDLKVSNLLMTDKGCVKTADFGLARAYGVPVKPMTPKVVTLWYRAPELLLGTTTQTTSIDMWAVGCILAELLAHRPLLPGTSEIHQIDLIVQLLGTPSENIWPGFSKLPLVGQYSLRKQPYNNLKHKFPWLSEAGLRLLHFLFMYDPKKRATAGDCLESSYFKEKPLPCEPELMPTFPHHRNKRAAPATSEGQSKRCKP
UniProt Q00526: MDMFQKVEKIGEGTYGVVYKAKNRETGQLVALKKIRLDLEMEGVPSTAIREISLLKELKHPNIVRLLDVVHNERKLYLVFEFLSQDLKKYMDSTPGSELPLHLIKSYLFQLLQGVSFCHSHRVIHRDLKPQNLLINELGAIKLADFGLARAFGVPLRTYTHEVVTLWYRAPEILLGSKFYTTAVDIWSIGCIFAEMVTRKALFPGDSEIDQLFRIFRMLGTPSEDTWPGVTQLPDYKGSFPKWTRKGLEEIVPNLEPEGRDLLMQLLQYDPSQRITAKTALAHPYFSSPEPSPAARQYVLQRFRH
UniProt Q00535, whole entry, looked up: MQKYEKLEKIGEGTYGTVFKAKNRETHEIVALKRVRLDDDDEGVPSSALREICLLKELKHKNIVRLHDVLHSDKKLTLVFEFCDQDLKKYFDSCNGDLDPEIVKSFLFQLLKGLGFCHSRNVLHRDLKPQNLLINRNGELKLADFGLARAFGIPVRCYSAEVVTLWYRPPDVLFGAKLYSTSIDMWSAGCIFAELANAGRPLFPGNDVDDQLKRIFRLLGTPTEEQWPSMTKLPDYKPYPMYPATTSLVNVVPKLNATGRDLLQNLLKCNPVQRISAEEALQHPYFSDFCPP
UniProt Q00534, whole entry: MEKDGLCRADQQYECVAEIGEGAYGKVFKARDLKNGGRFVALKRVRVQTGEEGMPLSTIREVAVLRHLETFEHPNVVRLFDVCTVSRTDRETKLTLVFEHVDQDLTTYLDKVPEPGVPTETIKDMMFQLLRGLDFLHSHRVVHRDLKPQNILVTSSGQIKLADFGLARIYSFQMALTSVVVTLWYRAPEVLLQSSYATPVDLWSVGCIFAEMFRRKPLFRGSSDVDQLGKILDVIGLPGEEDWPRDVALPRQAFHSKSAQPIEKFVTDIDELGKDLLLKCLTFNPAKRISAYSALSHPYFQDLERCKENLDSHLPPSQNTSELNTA
UniProt O96017, whole entry: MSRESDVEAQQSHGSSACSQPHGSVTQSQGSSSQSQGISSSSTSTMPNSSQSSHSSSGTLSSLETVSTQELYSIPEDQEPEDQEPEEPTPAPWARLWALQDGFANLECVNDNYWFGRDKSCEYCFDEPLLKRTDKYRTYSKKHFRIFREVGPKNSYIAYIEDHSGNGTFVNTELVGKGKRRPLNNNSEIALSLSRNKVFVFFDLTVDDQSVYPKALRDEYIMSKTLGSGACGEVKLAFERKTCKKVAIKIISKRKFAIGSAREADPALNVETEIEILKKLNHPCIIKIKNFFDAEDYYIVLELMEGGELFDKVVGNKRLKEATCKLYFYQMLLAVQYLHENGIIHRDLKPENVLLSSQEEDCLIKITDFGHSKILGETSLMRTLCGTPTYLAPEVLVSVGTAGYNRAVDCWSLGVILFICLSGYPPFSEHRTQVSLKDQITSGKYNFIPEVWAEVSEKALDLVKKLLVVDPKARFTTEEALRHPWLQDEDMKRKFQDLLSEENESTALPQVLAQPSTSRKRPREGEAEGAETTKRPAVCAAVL
UniProt P07333, whole entry: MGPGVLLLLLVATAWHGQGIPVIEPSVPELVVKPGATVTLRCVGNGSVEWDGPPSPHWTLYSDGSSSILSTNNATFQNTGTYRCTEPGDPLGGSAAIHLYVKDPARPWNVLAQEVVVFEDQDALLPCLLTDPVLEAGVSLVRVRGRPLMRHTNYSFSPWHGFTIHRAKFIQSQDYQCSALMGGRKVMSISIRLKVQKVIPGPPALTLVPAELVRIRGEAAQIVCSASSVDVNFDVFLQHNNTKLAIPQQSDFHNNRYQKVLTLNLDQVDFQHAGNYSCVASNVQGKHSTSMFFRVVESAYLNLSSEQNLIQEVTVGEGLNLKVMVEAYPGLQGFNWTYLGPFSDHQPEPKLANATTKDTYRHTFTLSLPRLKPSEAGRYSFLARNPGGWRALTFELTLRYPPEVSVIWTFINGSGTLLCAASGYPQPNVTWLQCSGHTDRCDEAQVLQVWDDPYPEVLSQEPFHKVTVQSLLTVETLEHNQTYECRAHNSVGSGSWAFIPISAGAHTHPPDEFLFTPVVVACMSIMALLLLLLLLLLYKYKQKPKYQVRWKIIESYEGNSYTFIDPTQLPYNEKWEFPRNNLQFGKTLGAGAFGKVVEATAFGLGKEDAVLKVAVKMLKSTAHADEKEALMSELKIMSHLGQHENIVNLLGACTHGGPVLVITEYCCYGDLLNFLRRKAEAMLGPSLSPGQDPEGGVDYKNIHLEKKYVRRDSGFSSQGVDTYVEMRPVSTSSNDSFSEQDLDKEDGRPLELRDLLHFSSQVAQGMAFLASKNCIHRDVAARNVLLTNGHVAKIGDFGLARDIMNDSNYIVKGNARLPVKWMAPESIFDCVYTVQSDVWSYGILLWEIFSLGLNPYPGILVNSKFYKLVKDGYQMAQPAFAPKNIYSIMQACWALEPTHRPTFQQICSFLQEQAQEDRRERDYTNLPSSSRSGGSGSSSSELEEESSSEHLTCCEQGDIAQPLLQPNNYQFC
UniProt P41240: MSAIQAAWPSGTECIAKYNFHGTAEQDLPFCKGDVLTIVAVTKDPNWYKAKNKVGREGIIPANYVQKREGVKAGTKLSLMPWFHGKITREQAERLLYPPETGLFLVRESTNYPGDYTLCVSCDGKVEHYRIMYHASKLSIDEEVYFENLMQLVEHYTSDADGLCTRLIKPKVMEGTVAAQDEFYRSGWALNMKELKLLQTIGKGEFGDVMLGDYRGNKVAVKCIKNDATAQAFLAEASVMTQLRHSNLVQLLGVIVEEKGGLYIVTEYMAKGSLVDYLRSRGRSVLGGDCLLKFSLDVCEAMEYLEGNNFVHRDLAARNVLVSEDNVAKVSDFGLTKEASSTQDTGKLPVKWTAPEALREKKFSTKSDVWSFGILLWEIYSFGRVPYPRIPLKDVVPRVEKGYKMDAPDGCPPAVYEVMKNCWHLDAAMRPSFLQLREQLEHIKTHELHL

Legend:
Test in all cases: number of time points (of 5) at which kinase-Nluc abundance scored as decreased, DMSO-normalised (count); higher = more persistent destabilization
Settings in all cases: K562; 2-18 h
[1] = biological target: CAMK2A (UniProt Q9UQM7)
[2] = biological target: CAMK2G (UniProt Q13555)
[3] = biological target: CDK10 (UniProt Q15131)
[4] = biological target: CDK2 (UniProt P24941)
[5] = biological target: CDK3 (UniProt Q00526)
[6] = biological target: CDK5 (UniProt Q00535)
[7] = biological target: CDK6 (UniProt Q00534)
[8] = biological target: CHEK2 (UniProt O96017)
[9] = biological target: CSF1R (UniProt P07333)
[10] = biological target: CSK (UniProt P41240)

| Structure (SMILES) | number of time points [1] | number of time points [2] | number of time points [3] | number of time points [4] | number of time points [5] | number of time points [6] | number of time points [7] | number of time points [8] | number of time points [9] | number of time points [10] |
| --- | --- | --- | --- | --- | --- | --- | --- | --- | --- | --- |
| C=CS(=O)(=O)c1ccc(Nc2nc(OCC3CCCCC3)c3[nH]cnc3n2)cc1 (2.5 µM) | 0 | 0 | 0 | 0 | 0 | 0 | 0 | 3 | 0 | 0 |
| COc1ccc2c(Oc3ccc(NC(=O)c4c(C)n(CC(C)(C)O)n(-c5ccccc5)c4=O)cc3F)ccnc2c1 (2.5 µM) | 0 | 0 | 0 | 0 | 0 | 0 | 0 | 0 | 0 | 0 |
| Cc1cc(Nc2nc(N[C@@H](C)c3ncc(F)cn3)ncc2Cl)[nH]n1 (10 µM) | 0 | 0 | 0 | 0 | 0 | 0 | 0 | 0 | 0 | 0 |
| CN(C)Cc1cccc(N=C(c2ccccc2)c2c(O)[nH]c3cc(C(=O)N(C)C)ccc23)c1 (10 µM) | 0 | 0 | 0 | 0 | 0 | 0 | 0 | 0 | 0 | 0 |
| COc1nc(-c2cccc3c2OCCO3)ccc1Nc1ccc(CN(C)C)cc1 [RAS inhibitor Abd-7] (10 µM) | 0 | 0 | 0 | 0 | 0 | 0 | 0 | 0 | 0 | 0 |
| c1ccc(-c2oc3ncnc(NC[C@@H]4CCCO4)c3c2-c2ccccc2)cc1 (2.5 µM) | 0 | 0 | 0 | 0 | 0 | 0 | 0 | 0 | 0 | 0 |
| C[C@@H]1COCCN1c1cc(C2([S@](C)(=N)=O)CC2)nc(-c2cc[nH]c3nccc2-3)n1 [Ceralasertib] (2.5 µM) | 0 | 0 | 0 | 0 | 0 | 0 | 0 | 0 | 0 | 0 |
| NC(=O)c1ccc(-c2cnn3ccc(NCc4cccnc4)nc23)cc1 (2.5 µM) | 0 | 0 | 0 | 0 | 0 | 0 | 0 | 0 | 0 | 0 |
| COc1ccc(CCNc2ncc3c(=O)n(-c4cccc(F)c4)c(=O)[nH]c3n2)cc1OC (2 µM) | 0 | 0 | 0 | 0 | 0 | 0 | 0 | 0 | 0 | 0 |
| Cc1ccc(-c2ccc3c(ccc4sc5c(c43)NC[C@@H](C)NC5=O)n2)cn1 (10 µM) | 0 | 0 | 0 | 0 | 0 | 0 | 0 | 0 | 0 | 0 |
| COC(=O)N[C@@H](C)CNc1nccc(-c2cn(C(C)C)nc2-c2cc(Cl)cc(NS(C)(=O)=O)c2F)n1 [Encorafenib] (10 µM) | 0 | 0 | 0 | 0 | 0 | 0 | 0 | 0 | 0 | 0 |
| COc1ccccc1/C=C1\C(=O)Nc2ccccc21 (10 µM) | 0 | 0 | 0 | 0 | 0 | 0 | 0 | 0 | 0 | 0 |
| NS(=O)(=O)c1ccc(N2N=C(c3ccccc3)CC2c2ccccc2)cc1 (stereo not given) (10 µM) | 0 | 0 | 0 | 0 | 0 | 0 | 0 | 0 | 0 | 0 |
| O=c1ccoc2cc(O)ccc12 [7-Hydroxy-4H-chromen-4-one] (10 µM) | 0 | 0 | 0 | 0 | 0 | 0 | 0 | 0 | 0 | 0 |
| O=C(O)c1ccc(-c2c[nH]c3ncc(-c4ccccc4)cc23)cc1C1CCCC1 (2.5 µM) | 0 | 0 | 0 | 0 | 0 | 0 | 0 | 0 | 0 | 0 |
| C[C@@H]1C[C@H]2O[C@@]3(O[C@@H]2C(C)(C)O)[C@H](O)[C@@]2(C)[C@@H]4CC[C@H]5C(C)(C)[C@@H](O[C@@H]6OC[C@H](O)[C@H](O)[C@H]6O)CC[C@@]56C[C@@]46CC[C@]2(C)[C@@H]13 [Cimiracemoside C] (10 µM) | 0 | 0 | 0 | 0 | 0 | 0 | 0 | 0 | 0 | 0 |
| N#C/C(=C(/N)Sc1ccc(N)cc1)c1ccccc1C(F)(F)F (10 µM) | 0 | 0 | 0 | 0 | 0 | 0 | 0 | 0 | 0 | 0 |
| COc1ccc(CNc2nc(N(CCO)CCO)nc3c2ncn3C(C)C)cc1 (2.5 µM) | 0 | 0 | 0 | 0 | 0 | 0 | 0 | 0 | 0 | 0 |
| CC(C)c1ccc(CC(=O)N2CCN(c3ccc(C#N)nn3)CC2)cc1 (10 µM) | 0 | 0 | 0 | 0 | 0 | 0 | 0 | 0 | 0 | 0 |
| O[C@H]1CC[C@H](Nc2ncc3nc(Nc4c(F)cc(F)cc4F)n([C@H]4CCOC4)c3n2)CC1 [Tanzisertib] (10 µM) | 0 | 0 | 0 | 0 | 0 | 0 | 0 | 0 | 0 | 0 |
| COC(=O)[C@@]1(C)CC[C@]2(C(=O)O)CC[C@]3(C)C(=CC[C@@H]4[C@@]5(C)C[C@H](O)[C@H](O[C@@H]6OC[C@@H](O[C@@H]7O[C@H](CO)[C@@H](O)[C@H](O)[C@H]7O)[C@H](O)[C@H]6O)[C@@](C)(CO)[C@@H]5CC[C@]43C)[C@@H]2C1 [Esculentoside A] (10 µM) | 0 | 0 | 0 | 0 | 0 | 0 | 0 | 0 | 0 | 0 |
| CC1(COc2ccc3c(c2)ncn3-c2ccc3cccc(N4CCC(N)CC4)c3n2)COC1 [Crenolanib] (2.5 µM) | 0 | 0 | 2 | 0 | 0 | 0 | 0 | 1 | 3 | 0 |
| COc1cnccc1Nc1nc(-c2nn(Cc3c(F)cc(OCCO)cc3F)c3ccccc23)ncc1OC (10 µM) | 0 | 0 | 0 | 0 | 0 | 0 | 0 | 0 | 0 | 0 |
| O=C(CCCCCn1cc(Nc2ncc(Cl)c(Nc3ccc(Cl)cc3)n2)cn1)NO (2.5 µM) | 1 | 0 | 0 | 0 | 0 | 0 | 0 | 0 | 0 | 0 |
| COc1ccc2c(c1OC)OC1c3ccc(O)cc3OCC21 (stereo not given) [Methylnissolin] (10 µM) | 0 | 0 | 0 | 0 | 0 | 0 | 0 | 0 | 0 | 0 |

Copied from the results shown, 2 compounds:

| Structure (SMILES) | number of time points [1] | number of time points [2] | number of time points [3] | number of time points [4] | number of time points [5] | number of time points [6] | number of time points [7] | number of time points [8] | number of time points [9] | number of time points [10] |
| --- | --- | --- | --- | --- | --- | --- | --- | --- | --- | --- |
| c1ccc(-c2oc3ncnc(NC[C@@H]4CCCO4)c3c2-c2ccccc2)cc1 (2.5 µM) | 0 | 0 | 0 | 0 | 0 | 0 | 0 | 0 | 0 | 0 |
| C[C@@H]1COCCN1c1cc(C2([S@](C)(=N)=O)CC2)nc(-c2cc[nH]c3nccc2-3)n1 [Ceralasertib] (2.5 µM) | 0 | 0 | 0 | 0 | 0 | 0 | 0 | 0 | 0 | 0 |

Later entries

| Structure (SMILES) | number of time points [1] | number of time points [2] | number of time points [3] | number of time points [4] | number of time points [5] | number of time points [6] | number of time points [7] | number of time points [8] | number of time points [9] | number of time points [10] |
| --- | --- | --- | --- | --- | --- | --- | --- | --- | --- | --- |
| Cc1cc2ncc(-c3ccccc3)nc2cc1C (10 µM) | 0 | 0 | 0 | 0 | 0 | 0 | 0 | 0 | 0 | 0 |
| NCCCCCCNS(=O)(=O)c1cccc2c(Cl)cccc12 [W-7 (hydrochloride)] (10 µM) | 0 | 0 | 0 | 0 | 0 | 0 | 0 | 0 | 0 | 0 |
| Cn1ncc(Cl)c1-c1cc(C(=O)N[C@H](CN)Cc2ccc(F)c(F)c2)sc1Cl (10 µM) | 0 | 0 | 0 | 0 | 0 | 0 | 0 | 0 | 0 | 0 |
| COc1ccc(-n2c(C)c([N+](=O)[O-])c3ccc(O)cc32)cc1 (10 µM) | 0 | 0 | 0 | 0 | 0 | 0 | 0 | 0 | 0 | 0 |
| O=C1NC(=O)C(c2cn(-c3ccccc3)nc2-c2ccc(F)cc2)N1 (stereo not given) (10 µM) | 0 | 0 | 0 | 0 | 0 | 0 | 0 | 0 | 0 | 0 |
| Nc1ncc(-c2ccc(C(=O)N3CCNCC3)cc2)nc1-c1ccc(C(F)(F)F)cc1 (10 µM) | 0 | 0 | 0 | 0 | 0 | 0 | 0 | 0 | 0 | 0 |
| COc1c(O)cc2oc3cc(O)c(CC=C(C)C)c(O)c3c(=O)c2c1CCC(C)(C)O [Garcinone D] (2.5 µM) | 0 | 0 | 0 | 0 | 0 | 0 | 0 | 0 | 0 | 0 |
| O=C1NC(=O)C(c2cnc3ccccn23)=C1c1cn2c3c(cc(F)cc13)CN(C(=O)N1CCCCC1)CC2 (2.5 µM) | 0 | 0 | 0 | 0 | 0 | 0 | 0 | 0 | 0 | 0 |
| Fc1c(Br)cccc1Nc1ncnc2cc3c(cc12)OCCO3 (2.5 µM) | 0 | 1 | 0 | 0 | 1 | 0 | 0 | 0 | 0 | 0 |
| O=C(O)c1ccccc1Nc1cccc(C(F)(F)F)c1 [Flufenamic acid] (10 µM) | 0 | 0 | 0 | 0 | 0 | 0 | 0 | 0 | 0 | 0 |
| CCOc1ccccc1C=C1C(=O)Nc2ccccc21 (10 µM) | 0 | 1 | 0 | 0 | 0 | 0 | 0 | 0 | 0 | 0 |
| CCC(C)(C)C(=O)N(O)Cc1ccccc1 (10 µM) | 0 | 0 | 0 | 0 | 0 | 0 | 0 | 0 | 0 | 0 |
| COc1ccc2c(=O)c(-c3ccccc3)coc2c1 [7-Methoxyisoflavone] (10 µM) | 0 | 0 | 0 | 0 | 0 | 0 | 0 | 0 | 1 | 0 |
| CCOc1nc(Nc2ccc(C(=O)N3CCOCC3)cc2OC)nc2[nH]ccc12 [LRRK2 inhibitor 1] (2.5 µM) | 0 | 0 | 0 | 0 | 0 | 0 | 0 | 0 | 0 | 0 |
| O=c1cc(-c2ccc(O)c(O)c2O)oc2ccccc12 (10 µM) | 0 | 0 | 0 | 0 | 0 | 0 | 0 | 0 | 0 | 0 |
| CC(=O)Nc1nc2ccc(-c3cnc(C)c(NC(=O)OC4CCCCC4)c3)cc2s1 (10 µM) | 0 | 0 | 0 | 0 | 0 | 0 | 0 | 0 | 0 | 0 |
| Nc1n[nH]c2cc(-c3ccc(=O)n(Cc4cccc(Cl)c4)c3)ccc12 (10 µM) | 0 | 0 | 0 | 0 | 0 | 0 | 1 | 0 | 0 | 0 |
| c1cc(-c2cnn3cc(-c4ccc(N5CCNCC5)cc4)cnc23)c2cccnc2c1 (2.5 µM) | 0 | 0 | 2 | 0 | 0 | 0 | 0 | 0 | 0 | 0 |
| CC1(N)CCN(c2cnc3c(-c4cccc(Cl)c4Cl)[nH]nc3n2)CC1 (2.5 µM) | 0 | 0 | 0 | 0 | 0 | 0 | 0 | 0 | 0 | 0 |
| Nc1nc2cc(-c3ccc4ncc(C(=O)N5CCOCC5)n4c3)ccc2o1 [Serabelisib] (10 µM) | 0 | 0 | 0 | 0 | 0 | 0 | 0 | 0 | 0 | 0 |
| O=C(Nc1cccc(-c2nncn2C2CC2)c1)c1cc(-n2cnc(C3CC3)c2)ccn1 (10 µM) | 0 | 0 | 0 | 0 | 0 | 0 | 0 | 0 | 0 | 0 |
| COc1ccc(CN2C3CC2CN(c2ccc(-c4cc(OCC(C)(C)O)cn5ncc(C#N)c45)cn2)C3)cn1 [Selpercatinib] (10 µM) | 0 | 0 | 0 | 0 | 0 | 0 | 2 | 0 | 0 | 0 |
| O=C(O)CCc1ccc(NCc2cccc(Oc3ccccc3)c2)cc1 (10 µM) | 0 | 0 | 0 | 0 | 0 | 0 | 0 | 0 | 0 | 0 |
| C=C[C@H]1[C@H](O[C@@H]2O[C@H](CO)[C@@H](O)[C@H](O)[C@H]2OC(=O)c2c(O)cc(O)cc2-c2cccc(O)c2)OC=C2C(=O)OCC[C@H]21 [Amarogentin] (10 µM) | 0 | 0 | 0 | 0 | 0 | 0 | 0 | 0 | 0 | 0 |
